# Data: publication PMC10605218
# By UniProt entry, the sequences of proteins in these tests, tags left out. Where a name states a change or a piece, a line headed by the entry shows the natural chain unless it says otherwise.
# UniProt Q13421: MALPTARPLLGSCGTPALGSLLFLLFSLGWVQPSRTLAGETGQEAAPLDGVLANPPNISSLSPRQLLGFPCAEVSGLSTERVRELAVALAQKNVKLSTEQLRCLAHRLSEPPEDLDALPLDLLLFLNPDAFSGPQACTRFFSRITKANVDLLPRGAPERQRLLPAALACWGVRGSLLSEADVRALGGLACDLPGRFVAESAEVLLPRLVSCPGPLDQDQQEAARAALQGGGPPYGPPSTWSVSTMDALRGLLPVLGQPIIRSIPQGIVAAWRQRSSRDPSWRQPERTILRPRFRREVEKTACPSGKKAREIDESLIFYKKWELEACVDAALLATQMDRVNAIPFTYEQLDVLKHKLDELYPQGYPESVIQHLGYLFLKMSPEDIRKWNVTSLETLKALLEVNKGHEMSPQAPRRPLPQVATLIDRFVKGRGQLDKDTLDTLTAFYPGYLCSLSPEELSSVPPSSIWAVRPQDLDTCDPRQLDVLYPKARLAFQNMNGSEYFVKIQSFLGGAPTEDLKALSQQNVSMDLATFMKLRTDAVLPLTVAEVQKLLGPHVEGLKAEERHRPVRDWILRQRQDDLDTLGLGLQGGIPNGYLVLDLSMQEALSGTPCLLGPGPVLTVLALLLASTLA
# These are yes or no findings as the source states them, for the method shown. Binding seen in cells or lysates may run through a third protein. Binding calls can cover weak binding; strength is not graded here.
# Molecular target: T1, prostate stem cell antigen (PSCA) (human (endogenous in PANC1)) (UniProt O43653)
# T1 sequence: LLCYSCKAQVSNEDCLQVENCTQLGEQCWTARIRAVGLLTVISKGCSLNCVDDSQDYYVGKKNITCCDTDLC
# Experiment: co-IP; PANC1 cell membrane lysate; pre-cleared with protein A agarose beads and rabbit IgG; overnight immunoprecipitation with beads coupled with anti-PSCA antibodies; three washes with PBS; Western blot with anti-MSLN
substance,measurement,value
Mesothelin (MSLN) (from UniProt Q13421),binding,binds
